These are yes or no findings as the source states them, for the method shown. Binding seen in cells or lysates may run through a third protein. Some results given as binding are weak or reduced against the parent protein; the word gives no strength.
Target: FlagBirA*-NRAS (human) (UniProt P01111)
Assay: proximity ligation; Duolink PLA in methanol-fixed FlagBirA*-RAS T-REx 293 cells transfected with 3xHA-tagged candidate, tetracycline-induced; mouse anti-Flag and rabbit anti-HA; dots per cell, 100 cells; radius ~30 nm

By UniProt entry, the sequences of proteins in these tests, tags left out.
UniProt Q8TBC3: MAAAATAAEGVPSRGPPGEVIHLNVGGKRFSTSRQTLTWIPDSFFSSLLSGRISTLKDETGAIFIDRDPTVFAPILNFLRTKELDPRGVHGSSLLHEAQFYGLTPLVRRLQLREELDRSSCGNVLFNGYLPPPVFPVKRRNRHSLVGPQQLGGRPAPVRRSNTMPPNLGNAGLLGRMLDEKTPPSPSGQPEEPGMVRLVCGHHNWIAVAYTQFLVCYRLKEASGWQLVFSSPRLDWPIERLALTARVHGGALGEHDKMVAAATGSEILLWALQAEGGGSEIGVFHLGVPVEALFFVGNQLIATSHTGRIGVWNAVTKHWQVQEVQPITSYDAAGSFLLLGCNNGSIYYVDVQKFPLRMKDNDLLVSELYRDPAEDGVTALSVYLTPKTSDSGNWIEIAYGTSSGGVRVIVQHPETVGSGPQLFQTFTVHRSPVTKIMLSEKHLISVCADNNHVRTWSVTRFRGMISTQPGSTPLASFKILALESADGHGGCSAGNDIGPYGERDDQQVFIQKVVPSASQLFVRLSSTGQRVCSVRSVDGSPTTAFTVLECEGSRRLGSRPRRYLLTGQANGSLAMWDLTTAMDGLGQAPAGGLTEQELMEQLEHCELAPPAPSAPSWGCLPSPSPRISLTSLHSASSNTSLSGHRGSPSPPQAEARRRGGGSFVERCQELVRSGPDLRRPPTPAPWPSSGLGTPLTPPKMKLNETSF

**Q.** How did the binding turn out when HA-SHKBP1 (from UniProt Q8TBC3 1-707) was run?
**A.** binds

From publication PMC7696408
